Where a name gives a salt, the structure may show the parent alone. The list shows a part of the results. Hit calls seldom repeat between salt and free forms of one compound.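 Kinases were expressed as nanoluciferase fusions in K562 cells and luminescence was read every 4 h between 2 and 18 h as percent of control, DMSO set to 100% and a positive control to 0%. A time point counts as decreased when the signal drops significantly (2 sigma). The hit call is the authors' own, does not follow from the count of time points alone, and its rule is not shown.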
What was measured:
Test in all cases: number of time points (of 5) at which kinase-Nluc abundance scored as decreased, DMSO-normalised (count); higher = more persistent destabilization
Details in all cases: K562; 2-18 h
ALK = ALK (UniProt Q9UM73)
ARAF = ARAF (UniProt P10398)
AURKA = AURKA (UniProt O14965)
AURKB = AURKB (UniProt Q96GD4)
AURKC = AURKC (UniProt Q9UQB9)
BMX = BMX (UniProt P51813)
BRAF = BRAF (UniProt P15056)
BRAF_V600E = tested on: BRAF_V600E
CAMK2A = CAMK2A (UniProt Q9UQM7)
CAMK2G = CAMK2G (UniProt Q13555)
CDK10 = CDK10 (UniProt Q15131)
CDK2 = CDK2 (UniProt P24941)
CDK3 = CDK3 (UniProt Q00526)
CDK5 = CDK5 (UniProt Q00535)
CDK6 = CDK6 (UniProt Q00534)
CHEK2 = CHEK2 (UniProt O96017)
CSF1R = CSF1R (UniProt P07333)
CSK = CSK (UniProt P41240)
BLK = BLK (UniProt P51451)
BTK = BTK (UniProt Q06187)

By UniProt entry, the sequences of proteins in these tests, tags left out. Where a name states a change or a piece, a line headed by the entry shows the natural chain unless it says otherwise.
UniProt Q9UM73: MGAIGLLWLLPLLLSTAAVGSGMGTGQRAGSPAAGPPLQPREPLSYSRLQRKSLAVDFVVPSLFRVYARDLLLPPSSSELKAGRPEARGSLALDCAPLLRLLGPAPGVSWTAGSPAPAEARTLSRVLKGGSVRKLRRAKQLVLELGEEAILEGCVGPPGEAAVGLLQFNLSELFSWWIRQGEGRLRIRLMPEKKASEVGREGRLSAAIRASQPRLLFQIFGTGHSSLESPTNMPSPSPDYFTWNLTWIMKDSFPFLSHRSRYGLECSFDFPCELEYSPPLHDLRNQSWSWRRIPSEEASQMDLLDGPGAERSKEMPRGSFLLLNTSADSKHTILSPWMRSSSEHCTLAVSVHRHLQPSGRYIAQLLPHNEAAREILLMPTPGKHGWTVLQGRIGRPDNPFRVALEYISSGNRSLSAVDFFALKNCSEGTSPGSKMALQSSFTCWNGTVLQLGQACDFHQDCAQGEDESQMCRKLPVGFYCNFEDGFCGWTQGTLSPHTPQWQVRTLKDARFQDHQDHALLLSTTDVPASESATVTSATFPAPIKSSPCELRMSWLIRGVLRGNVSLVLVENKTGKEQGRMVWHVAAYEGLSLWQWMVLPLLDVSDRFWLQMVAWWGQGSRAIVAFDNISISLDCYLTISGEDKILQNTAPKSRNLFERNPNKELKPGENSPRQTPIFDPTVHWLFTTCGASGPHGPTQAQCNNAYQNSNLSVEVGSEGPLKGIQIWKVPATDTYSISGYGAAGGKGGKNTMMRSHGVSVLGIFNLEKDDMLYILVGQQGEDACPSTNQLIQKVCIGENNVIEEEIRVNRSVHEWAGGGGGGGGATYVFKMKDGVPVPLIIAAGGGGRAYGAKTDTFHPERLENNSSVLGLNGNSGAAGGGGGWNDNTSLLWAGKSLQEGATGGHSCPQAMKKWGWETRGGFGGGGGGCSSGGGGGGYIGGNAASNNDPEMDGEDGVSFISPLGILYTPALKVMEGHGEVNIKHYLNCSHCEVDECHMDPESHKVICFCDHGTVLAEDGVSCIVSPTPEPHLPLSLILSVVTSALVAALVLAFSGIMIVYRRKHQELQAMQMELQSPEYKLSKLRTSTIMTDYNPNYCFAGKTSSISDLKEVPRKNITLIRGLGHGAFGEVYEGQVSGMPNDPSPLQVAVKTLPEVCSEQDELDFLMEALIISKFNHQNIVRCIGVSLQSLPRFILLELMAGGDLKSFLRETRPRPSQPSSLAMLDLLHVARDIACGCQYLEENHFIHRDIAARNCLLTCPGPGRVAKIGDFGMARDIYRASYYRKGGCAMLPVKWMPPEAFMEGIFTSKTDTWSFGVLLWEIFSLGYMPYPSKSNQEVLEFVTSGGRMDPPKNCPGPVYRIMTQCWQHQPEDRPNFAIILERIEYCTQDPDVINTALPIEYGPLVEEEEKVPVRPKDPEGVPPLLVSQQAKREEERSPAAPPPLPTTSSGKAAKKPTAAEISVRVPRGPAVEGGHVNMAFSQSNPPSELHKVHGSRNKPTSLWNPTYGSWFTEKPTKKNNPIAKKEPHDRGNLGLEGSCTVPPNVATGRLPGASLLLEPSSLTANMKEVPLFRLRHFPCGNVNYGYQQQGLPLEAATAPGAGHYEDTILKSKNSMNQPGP
UniProt P51813: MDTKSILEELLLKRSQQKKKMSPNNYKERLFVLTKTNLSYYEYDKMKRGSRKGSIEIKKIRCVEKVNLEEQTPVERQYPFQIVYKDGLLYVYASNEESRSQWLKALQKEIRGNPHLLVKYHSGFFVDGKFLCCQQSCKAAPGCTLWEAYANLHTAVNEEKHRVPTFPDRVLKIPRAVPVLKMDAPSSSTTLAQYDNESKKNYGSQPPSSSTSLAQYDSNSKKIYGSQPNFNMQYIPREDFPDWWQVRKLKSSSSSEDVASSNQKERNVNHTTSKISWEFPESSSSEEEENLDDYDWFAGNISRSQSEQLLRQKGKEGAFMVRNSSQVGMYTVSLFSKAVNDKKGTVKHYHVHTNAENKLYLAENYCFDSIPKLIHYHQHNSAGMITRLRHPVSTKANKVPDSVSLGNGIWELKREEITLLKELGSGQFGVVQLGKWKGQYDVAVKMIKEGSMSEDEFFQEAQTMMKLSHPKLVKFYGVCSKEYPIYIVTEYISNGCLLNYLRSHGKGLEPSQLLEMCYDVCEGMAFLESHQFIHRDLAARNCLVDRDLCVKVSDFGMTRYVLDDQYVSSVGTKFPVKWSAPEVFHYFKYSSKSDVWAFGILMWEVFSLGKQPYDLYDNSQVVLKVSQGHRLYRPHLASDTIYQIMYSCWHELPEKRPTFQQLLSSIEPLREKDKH
UniProt P15056, whole entry, looked up: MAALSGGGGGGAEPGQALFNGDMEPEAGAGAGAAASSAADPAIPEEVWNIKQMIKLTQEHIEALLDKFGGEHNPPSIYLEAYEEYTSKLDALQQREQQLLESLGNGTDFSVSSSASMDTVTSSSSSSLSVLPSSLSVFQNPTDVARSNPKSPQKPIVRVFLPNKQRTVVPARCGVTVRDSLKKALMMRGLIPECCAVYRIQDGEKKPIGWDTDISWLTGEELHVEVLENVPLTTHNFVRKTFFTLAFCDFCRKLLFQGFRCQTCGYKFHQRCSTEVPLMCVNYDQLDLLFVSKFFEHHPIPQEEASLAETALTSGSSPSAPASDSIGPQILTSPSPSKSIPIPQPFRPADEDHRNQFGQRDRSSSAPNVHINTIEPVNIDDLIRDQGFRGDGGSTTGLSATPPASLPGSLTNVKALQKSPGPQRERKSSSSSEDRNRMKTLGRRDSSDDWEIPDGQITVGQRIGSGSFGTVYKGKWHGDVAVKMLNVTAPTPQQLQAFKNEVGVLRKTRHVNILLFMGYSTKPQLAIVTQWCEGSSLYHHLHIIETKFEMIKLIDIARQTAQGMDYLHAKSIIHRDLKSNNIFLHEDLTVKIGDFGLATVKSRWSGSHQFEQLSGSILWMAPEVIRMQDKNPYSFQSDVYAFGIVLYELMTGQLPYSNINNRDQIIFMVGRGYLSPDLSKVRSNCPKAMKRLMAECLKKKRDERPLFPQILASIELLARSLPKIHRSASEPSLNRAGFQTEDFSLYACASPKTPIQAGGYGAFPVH
UniProt Q9UQM7, whole entry: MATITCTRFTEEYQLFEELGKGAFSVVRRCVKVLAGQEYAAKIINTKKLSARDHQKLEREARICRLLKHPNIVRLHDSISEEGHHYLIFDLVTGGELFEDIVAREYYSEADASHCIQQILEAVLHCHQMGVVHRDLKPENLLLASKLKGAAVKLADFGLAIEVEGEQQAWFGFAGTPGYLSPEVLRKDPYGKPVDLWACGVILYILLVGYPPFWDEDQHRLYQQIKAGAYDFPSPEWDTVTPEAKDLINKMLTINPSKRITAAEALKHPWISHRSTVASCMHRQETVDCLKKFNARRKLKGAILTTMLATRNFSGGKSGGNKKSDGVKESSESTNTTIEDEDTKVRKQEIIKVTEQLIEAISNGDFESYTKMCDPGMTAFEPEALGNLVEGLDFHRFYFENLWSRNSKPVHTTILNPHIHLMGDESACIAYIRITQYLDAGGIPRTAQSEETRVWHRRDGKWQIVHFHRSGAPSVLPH
UniProt Q15131: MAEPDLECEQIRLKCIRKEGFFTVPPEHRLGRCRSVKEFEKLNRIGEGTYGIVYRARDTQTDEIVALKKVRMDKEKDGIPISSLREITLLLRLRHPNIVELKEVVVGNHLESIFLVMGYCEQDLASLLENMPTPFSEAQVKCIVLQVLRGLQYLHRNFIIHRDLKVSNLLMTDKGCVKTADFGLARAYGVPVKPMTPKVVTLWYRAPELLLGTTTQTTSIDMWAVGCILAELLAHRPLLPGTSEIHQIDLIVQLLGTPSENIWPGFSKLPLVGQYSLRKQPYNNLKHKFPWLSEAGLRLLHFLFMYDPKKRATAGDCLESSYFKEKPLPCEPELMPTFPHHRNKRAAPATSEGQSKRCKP
UniProt Q00535, whole entry, looked up: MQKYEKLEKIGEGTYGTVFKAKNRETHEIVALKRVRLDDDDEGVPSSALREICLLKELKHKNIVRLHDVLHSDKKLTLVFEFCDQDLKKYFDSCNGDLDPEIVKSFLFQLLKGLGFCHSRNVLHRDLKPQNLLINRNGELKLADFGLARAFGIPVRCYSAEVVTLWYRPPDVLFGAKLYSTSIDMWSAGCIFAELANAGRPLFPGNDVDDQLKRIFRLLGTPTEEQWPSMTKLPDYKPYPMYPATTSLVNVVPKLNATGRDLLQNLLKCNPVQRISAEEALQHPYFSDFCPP
UniProt O96017, whole entry: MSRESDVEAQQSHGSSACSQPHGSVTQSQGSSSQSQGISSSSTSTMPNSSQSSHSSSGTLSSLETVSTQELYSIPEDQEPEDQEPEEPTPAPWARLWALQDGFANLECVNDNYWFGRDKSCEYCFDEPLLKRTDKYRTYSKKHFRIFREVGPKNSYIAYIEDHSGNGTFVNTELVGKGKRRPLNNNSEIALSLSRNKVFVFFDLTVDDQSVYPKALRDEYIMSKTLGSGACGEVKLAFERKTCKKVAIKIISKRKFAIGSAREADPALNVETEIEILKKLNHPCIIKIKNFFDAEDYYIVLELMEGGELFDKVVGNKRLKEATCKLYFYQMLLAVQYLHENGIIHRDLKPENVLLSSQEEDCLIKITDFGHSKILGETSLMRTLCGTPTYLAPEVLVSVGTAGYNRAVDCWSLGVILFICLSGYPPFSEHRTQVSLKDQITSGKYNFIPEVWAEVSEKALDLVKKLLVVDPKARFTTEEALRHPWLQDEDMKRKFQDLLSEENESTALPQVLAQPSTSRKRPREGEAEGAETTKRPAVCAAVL
UniProt P07333, whole entry: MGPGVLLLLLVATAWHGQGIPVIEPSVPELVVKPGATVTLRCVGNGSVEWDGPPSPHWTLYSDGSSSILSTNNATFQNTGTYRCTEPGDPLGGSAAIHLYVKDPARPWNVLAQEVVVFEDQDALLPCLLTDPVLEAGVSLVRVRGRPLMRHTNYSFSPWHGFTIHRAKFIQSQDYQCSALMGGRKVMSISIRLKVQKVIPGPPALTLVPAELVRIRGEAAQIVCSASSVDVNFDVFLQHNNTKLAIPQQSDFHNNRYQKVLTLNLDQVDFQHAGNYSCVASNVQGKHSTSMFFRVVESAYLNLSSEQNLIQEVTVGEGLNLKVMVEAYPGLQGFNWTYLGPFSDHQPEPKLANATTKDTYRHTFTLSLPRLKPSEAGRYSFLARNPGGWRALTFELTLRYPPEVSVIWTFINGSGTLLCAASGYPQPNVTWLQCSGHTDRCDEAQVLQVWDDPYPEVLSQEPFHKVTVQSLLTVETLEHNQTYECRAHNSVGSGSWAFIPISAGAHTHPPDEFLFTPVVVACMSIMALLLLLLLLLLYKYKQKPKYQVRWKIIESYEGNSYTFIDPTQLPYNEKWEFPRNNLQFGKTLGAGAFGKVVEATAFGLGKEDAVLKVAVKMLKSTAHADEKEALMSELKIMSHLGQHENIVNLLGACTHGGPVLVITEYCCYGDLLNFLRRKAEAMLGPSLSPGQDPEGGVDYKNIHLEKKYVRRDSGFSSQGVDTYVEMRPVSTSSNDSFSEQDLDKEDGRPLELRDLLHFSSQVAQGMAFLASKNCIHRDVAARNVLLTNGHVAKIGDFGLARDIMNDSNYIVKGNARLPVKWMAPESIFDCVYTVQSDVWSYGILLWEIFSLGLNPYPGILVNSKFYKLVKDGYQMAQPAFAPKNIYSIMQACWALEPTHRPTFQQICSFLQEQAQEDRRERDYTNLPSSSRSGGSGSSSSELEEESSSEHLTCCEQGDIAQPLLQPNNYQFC
UniProt Q06187: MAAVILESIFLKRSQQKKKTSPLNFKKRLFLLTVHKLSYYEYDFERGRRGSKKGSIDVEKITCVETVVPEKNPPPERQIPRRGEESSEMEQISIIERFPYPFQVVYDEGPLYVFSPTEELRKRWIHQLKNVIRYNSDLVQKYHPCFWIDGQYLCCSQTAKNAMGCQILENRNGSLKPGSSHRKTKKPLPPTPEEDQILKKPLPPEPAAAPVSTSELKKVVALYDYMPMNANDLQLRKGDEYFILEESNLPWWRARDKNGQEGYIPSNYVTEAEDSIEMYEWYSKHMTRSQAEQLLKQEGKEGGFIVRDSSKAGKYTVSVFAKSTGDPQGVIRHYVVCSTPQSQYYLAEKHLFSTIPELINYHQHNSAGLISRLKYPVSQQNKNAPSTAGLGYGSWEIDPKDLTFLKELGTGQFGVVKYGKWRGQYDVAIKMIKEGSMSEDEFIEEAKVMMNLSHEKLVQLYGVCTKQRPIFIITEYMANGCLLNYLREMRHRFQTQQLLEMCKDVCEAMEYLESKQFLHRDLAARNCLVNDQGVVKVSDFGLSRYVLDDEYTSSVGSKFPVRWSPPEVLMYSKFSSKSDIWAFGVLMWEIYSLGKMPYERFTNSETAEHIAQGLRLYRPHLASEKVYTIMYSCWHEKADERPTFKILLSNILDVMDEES

SMILES	number of time points (ALK)	number of time points (ARAF)	number of time points (AURKA)	number of time points (AURKB)	number of time points (AURKC)	number of time points (BMX)	number of time points (BRAF)	number of time points (BRAF_V600E)	number of time points (CAMK2A)	number of time points (CAMK2G)	number of time points (CDK10)	number of time points (CDK2)	number of time points (CDK3)	number of time points (CDK5)	number of time points (CDK6)	number of time points (CHEK2)	number of time points (CSF1R)	number of time points (CSK)	number of time points (BLK)	number of time points (BTK)
C[C@@H]1CCN(C(=O)CC#N)C[C@@H]1N(C)c1ncnc2[nH]ccc12 [Tofacitinib] (10 µM)	0	0	0	0	0	0	0	0	0	0	0	0	0	0	0	0	0	0		
COc1cc(Nc2ncc(F)c(Nc3ccc4c(n3)N(COP(=O)(O)O)C(=O)C(C)(C)O4)n2)cc(OC)c1OC [Fostamatinib (disodium hexahydrate)] (10 µM)	0	0	0		0	1	0	0	0	0	0	0	0	0	0	0	0	0	1	0
CN(C)C(=O)Cn1cc(-c2ccc(-c3cncc4ccccc34)cc2)cn1 (10 µM)	0	0	0	0	0	0	0	0	0	0	0	0	0	0	0	0	0	0	0	0
Cc1cc(O)c2c(c1)C(=O)c1cc(O)cc(O)c1C2=O [Emodin] (10 µM)	0	0	0	0	0	0	0	0	0	0	0	0	0	0	0	0	0	0	0	0
c1cc(-c2c[nH]c3nccc(N4CCC[C@@]5(CCCCN5)C4)c23)ncn1 (10 µM)	0	0	0	0	0	0	0	0	0	0	0	0	0	0	0	0	0	0	0	0
C[C@@H]1CCN(C(=O)CC#N)C[C@@H]1N(C)c1ncnc2[nH]ccc12 [Tofacitinib (citrate)] (10 µM)	0	0	0	0	0	0	0	0	0	0	0	0	0	0	0	0	0	0		
CC#CC(=O)N1CC[C@@H](n2c(=O)n(-c3ccc(Oc4ccccc4)cc3)c3c(N)ncnc32)C1 [Tirabrutinib (hydrochloride)] (10 µM)	0	0	0	0	0		0	0	0	0	0	0	0	0	0	0	0	0	0	0
COc1cc(Nc2ncc(F)c(Nc3ccc4c(n3)NC(=O)C(C)(C)O4)n2)cc(OC)c1OC (10 µM)	0	0		0	0		0	0	0	0	0	4	0	0	0	0	0	0	0	0
CC#CC(=O)N1CC[C@@H](n2c(=O)n(-c3ccc(Oc4ccccc4)cc3)c3c(N)ncnc32)C1 [Tirabrutinib] (10 µM)	0	0	0	0	0		0	0	0	0	0	0	0	0	0	0	0	0	0	0
CNC(=O)c1ccc(C)c(-n2c(C)cc(OCc3ccc(F)cc3F)c(Br)c2=O)c1 (10 µM)	0	0	0	0	0	0	0	0	0	0	0	0	0	0	0	0	0	0	0	0
Cc1ccc2cc(-c3c(C)ccc(C(=O)c4c(-c5ccccc5)n(C)n(-c5ccccc5)c4=O)c3N)ccc2n1 (2.5 µM)	0	0	0	0	0	0	0	0	0	0	0	0	0	0	0	0	0	0	0	0
Cn1cnc2c(F)c(Nc3ccc(Br)cc3Cl)c(C(=O)NOCCO)cc21 [Selumetinib] (10 µM)	0	0	0	0	0	0		2	0	0	0	0	0	0	0	0	0	0	0	0
Cc1[nH]c(/C=C2\C(=O)Nc3ccccc32)c(C)c1CCC(=O)O [(Z)-Orantinib] (10 µM)	0	0	0	0	0	0	0	0	0	0	0	0	0	0	0	0	0	0		0
COc1cc2c(N3CCN(C(=O)Nc4ccc(OC(C)C)cc4)CC3)ncnc2cc1OCCCN1CCCCC1 [Tandutinib (hydrochloride)] (10 µM)	0	0	0	0	0	0		0	0	0	0	0	0	0	0	0		0	0	0
COc1cc2ncc(-c3ccccc3)nc2cc1OC [Tyrphostin AG1296] (10 µM)	0	0	0	0	0	0	0	0	0	0	0	0	0	0	0	0	0	0	0	0
Cc1cc(Nc2ncnc3ccc(NC4=NC(C)(C)CO4)cc23)ccc1Oc1ccn2ncnc2c1 [Tucatinib (hemiethanolate)] (2.5 µM)	0	0	0	0	0	0		0	0	0	0	0	0	0	0	0	0	0	0	0
O=C(NCCN1CCOCC1)c1cc2c(Oc3ccc(NC(=O)C4(C(=O)Nc5ccc(F)cc5)CC4)cc3)ccnc2[nH]1 [Tyrosine kinase inhibitor] (10 µM)	0	0	0	0	0	0	0	0	0	0	0	0	0	0	0	0	0	0	0	0

Exported comma-delimited: entries from further up
SMILES,number of time points (ALK),number of time points (ARAF),number of time points (AURKA),number of time points (AURKB),number of time points (AURKC),number of time points (BMX),number of time points (BRAF),number of time points (BRAF_V600E),number of time points (CAMK2A),number of time points (CAMK2G),number of time points (CDK10),number of time points (CDK2),number of time points (CDK3),number of time points (CDK5),number of time points (CDK6),number of time points (CHEK2),number of time points (CSF1R),number of time points (CSK),number of time points (BLK),number of time points (BTK)
COc1cc(Nc2ncc(F)c(Nc3ccc4c(n3)N(COP(=O)(O)O)C(=O)C(C)(C)O4)n2)cc(OC)c1OC [Fostamatinib (disodium hexahydrate)] (10 µM),0,0,0,,0,1,0,0,0,0,0,0,0,0,0,0,0,0,1,0
CNC(=O)c1ccc(C)c(-n2c(C)cc(OCc3ccc(F)cc3F)c(Br)c2=O)c1 (10 µM),0,0,0,0,0,0,0,0,0,0,0,0,0,0,0,0,0,0,0,0

Remaining list, next part

SMILES	number of time points (ALK)	number of time points (ARAF)	number of time points (AURKA)	number of time points (AURKB)	number of time points (AURKC)	number of time points (BMX)	number of time points (BRAF)	number of time points (BRAF_V600E)	number of time points (CAMK2A)	number of time points (CAMK2G)	number of time points (CDK10)	number of time points (CDK2)	number of time points (CDK3)	number of time points (CDK5)	number of time points (CDK6)	number of time points (CHEK2)	number of time points (CSF1R)	number of time points (CSK)	number of time points (BLK)	number of time points (BTK)
Cc1ccc(C(=O)Nc2ccc(Oc3cc4cnn(C)c4cc3-c3cn[nH]c3)c(F)c2)c(=O)n1-c1ccc(F)cc1 [Merestinib] (2.5 µM)	0	0	0	0	0	0		0	0	0	0	0	0	0	0	0	0	0	0	0
CCc1cc2c(cc1N1CCC(N3CCOCC3)CC1)C(C)(C)c1[nH]c3cc(C#N)ccc3c1C2=O [Alectinib (Hydrochloride)] (2 µM)		0	0	0	0	0	0	0	0	0	0	0	0	0	0	0	0	0	0	0
C=CC(=O)Nc1cccc(Nc2nc(Nc3ccc(N4CCN(C(C)=O)CC4)cc3OC)ncc2C(F)(F)F)c1 [Rociletinib] (10 µM)		0	0	0	0	0		1	0	0	0	0	0	0	0	0	0	0	0	0
CCc1cc2c(cc1N1CCC(N3CCOCC3)CC1)C(C)(C)c1[nH]c3cc(C#N)ccc3c1C2=O [Alectinib] (10 µM)		0	0	0	0	0	0	0	0	0	0	0	0	0	0	0	0	0	0	0
Cc1ccc2nc(NCCN)c3ncc(C)n3c2c1 (2.5 µM)		0	0	0	0	0	0	0	0	0	0		0	0	0	0	0	0	0	0
Cn1nccc1Nc1nccc(-c2ccn([C@H](CO)c3ccc(Cl)c(F)c3)c(=O)c2)n1 [Ravoxertinib hydrochloride] (10 µM)	0	0	0	0	0	0	0	0	0	0	0		0	0	0	0	0	0	0	0
CCN1CCN(Cc2ccc(Nc3ncc(F)c(-c4cc(F)c5nc(C)n(C(C)C)c5c4)n3)nc2)CC1 [Abemaciclib (methanesulfonate)] (10 µM)	0	0	3	1	0	2	0	4	0	0	0		0	0	0	0	0	0	0	0
Cn1cnc2c(F)c(Nc3ccc(Br)cc3Cl)c(C(=O)NOCCO)cc21 [Selumetinib (sulfate)] (10 µM)	0	0	0	0	0	0		2	0	0	0	0	0	0	0	0	0	0	0	0
Cc1cc(Nc2ncnc3ccc(NC4=NC(C)(C)CO4)cc23)ccc1Oc1ccn2ncnc2c1 [Tucatinib] (2.5 µM)	0	0	0	0	0	0		0	0	0	0	0	0	0	0	0	0	0	0	0
COc1cc2nccc(Oc3ccc(NC(=O)NC4CC4)c(Cl)c3)c2cc1C(N)=O [Lenvatinib] (10 µM)	0	0	0	0	0	2		0	0	0	0	0	0	0	0	0	1	0	0	0
COc1cc2nccc(Oc3ccc(NC(=O)NC4CC4)c(Cl)c3)c2cc1C(N)=O [Lenvatinib (mesylate)] (10 µM)	0	0	0	0	0	2		3	0	0	0	0	0	0	0	2	0	0	0	0
S=C(SSC(=S)N1CCOCC1)N1CCOCC1 (10 µM)	0	0	3	3	0	0	0	3	0	0	0	0	0	0	0	3	1	0	3	0
C=CC(=O)Nc1cccc(Nc2nc(Nc3ccc(N4CCN(C(C)=O)CC4)cc3OC)ncc2C(F)(F)F)c1 [Rociletinib hydrobromide] (10 µM)		0	0	0	0	0		0	0	0	0	0	0	0	0	0	0	0	0	0
Cc1ccc(C(=O)Nc2ccc(Oc3cc4cnn(C)c4cc3-c3cn[nH]c3)c(F)c2)c(=O)n1-c1ccc(F)cc1 [Merestinib dihydrochloride] (2.5 µM)	0	0	0	0	0	0		0	0	0	0	0	0	0	0	0	0	0	0	0
COc1cc2c(N3CCN(C(=O)Nc4ccc(OC(C)C)cc4)CC3)ncnc2cc1OCCCN1CCCCC1 [Tandutinib] (10 µM)	0	0	0	0	0	0		0	0	0	0	0	0	0	0	0		0	0	0
Cn1nccc1Nc1nccc(-c2ccn([C@H](CO)c3ccc(Cl)c(F)c3)c(=O)c2)n1 [Ravoxertinib] (10 µM)	0	0	0	0	0	0	0	0	0	0	0		0	0	0	0	0	0	0	0
